The list shows a part of the results.
Assays:
Assay in all cases: log2 fold change, soluble protein after heating vs DMSO (PISA); higher = thermal stabilisation; K562 cells, 10 uM, 30 min; active = over 0.2 and 3.5 SD of the protein, either way, in both replicates (recomputed)
[1] = compound: CN1CCN(CCOc2cc(OC3CCOCC3)c3c(Nc4c(Cl)ccc5c4OCO5)ncnc3c2)CC1 [saracatinib]
Outline: (§1)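 K562 cells (2×10^6 cells/mL) were treated with 10 μM compound for 30 min, and aliquots were heated for 3 min over 48°C-58°C. Pooled aliquots were extracted in PBS with 0.5% NP-40 at 4°C, and the supernatant after 21,000xg for 90 min was measured by TMTpro 16plex LC-MS/MS with channel sums equalised. Reported thermal stability, relative to control samples and from duplicates, is a log2 fold change.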

Sequences of proteins named here, by UniProt entry; tags and fusion partners are left off. A change or cut given only in a name is not applied to a line headed by its entry.
UniProt P19784, whole entry, looked up: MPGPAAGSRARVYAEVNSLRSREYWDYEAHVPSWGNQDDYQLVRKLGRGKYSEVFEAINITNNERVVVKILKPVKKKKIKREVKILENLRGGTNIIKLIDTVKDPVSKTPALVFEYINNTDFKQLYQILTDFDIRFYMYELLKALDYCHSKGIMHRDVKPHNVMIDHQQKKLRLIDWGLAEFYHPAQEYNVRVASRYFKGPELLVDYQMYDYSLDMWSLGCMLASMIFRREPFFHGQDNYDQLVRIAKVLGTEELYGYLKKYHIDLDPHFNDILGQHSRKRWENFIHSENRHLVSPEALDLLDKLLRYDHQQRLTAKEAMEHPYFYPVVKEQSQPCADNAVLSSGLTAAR
UniProt Q14061: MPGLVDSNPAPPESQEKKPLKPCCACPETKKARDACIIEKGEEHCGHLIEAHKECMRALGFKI
UniProt P10606, whole entry, looked up: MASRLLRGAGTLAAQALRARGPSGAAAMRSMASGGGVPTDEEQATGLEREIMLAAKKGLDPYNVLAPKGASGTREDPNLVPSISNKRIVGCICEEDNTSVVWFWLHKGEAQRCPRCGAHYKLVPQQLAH
UniProt Q14194, whole entry, looked up: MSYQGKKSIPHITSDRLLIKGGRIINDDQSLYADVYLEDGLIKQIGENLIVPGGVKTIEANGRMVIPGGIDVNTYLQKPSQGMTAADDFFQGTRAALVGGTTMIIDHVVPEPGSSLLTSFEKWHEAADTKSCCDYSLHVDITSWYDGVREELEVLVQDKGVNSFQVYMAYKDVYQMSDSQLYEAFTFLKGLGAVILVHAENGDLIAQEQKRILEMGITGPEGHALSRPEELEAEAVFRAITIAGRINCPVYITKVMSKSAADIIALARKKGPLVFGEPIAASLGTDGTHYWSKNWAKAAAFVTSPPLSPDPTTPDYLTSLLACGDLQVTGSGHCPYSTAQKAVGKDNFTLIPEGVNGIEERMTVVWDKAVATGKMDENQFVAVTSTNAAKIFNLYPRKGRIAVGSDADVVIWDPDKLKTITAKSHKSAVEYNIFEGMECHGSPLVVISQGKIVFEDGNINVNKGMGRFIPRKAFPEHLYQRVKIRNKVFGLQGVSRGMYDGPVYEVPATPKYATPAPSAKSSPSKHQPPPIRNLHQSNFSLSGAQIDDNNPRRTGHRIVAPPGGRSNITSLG
UniProt Q8N684: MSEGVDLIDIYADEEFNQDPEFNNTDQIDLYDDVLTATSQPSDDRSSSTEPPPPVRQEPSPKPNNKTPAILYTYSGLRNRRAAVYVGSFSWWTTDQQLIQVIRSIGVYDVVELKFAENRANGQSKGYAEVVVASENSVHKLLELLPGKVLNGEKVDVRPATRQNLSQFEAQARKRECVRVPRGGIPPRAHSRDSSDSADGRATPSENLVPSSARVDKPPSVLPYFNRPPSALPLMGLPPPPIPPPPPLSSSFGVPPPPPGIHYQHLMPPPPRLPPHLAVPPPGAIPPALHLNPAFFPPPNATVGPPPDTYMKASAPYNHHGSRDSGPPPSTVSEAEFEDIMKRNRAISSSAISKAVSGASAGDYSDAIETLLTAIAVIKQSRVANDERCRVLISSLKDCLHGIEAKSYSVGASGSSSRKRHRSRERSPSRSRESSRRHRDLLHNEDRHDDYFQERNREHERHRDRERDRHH
UniProt Q9P2I0: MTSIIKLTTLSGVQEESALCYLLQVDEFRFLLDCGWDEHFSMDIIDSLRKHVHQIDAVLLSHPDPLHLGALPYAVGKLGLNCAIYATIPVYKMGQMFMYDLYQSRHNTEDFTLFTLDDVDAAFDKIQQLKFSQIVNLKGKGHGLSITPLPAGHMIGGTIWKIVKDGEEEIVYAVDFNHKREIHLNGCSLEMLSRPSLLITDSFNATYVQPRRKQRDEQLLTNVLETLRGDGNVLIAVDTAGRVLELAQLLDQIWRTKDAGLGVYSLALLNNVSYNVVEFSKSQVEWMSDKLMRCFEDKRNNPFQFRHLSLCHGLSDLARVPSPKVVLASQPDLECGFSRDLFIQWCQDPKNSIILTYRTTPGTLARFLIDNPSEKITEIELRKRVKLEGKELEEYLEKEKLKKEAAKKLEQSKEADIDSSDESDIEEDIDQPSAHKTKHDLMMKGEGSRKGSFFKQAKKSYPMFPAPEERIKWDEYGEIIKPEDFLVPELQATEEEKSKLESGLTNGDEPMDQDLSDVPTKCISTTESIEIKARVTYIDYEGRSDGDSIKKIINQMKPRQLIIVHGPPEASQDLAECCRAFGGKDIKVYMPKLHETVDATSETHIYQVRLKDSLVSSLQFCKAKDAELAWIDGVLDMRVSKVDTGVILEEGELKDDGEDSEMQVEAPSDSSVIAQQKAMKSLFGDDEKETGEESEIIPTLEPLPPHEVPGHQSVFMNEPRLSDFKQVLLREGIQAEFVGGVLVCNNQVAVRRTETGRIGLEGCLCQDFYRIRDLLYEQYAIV
UniProt P46109: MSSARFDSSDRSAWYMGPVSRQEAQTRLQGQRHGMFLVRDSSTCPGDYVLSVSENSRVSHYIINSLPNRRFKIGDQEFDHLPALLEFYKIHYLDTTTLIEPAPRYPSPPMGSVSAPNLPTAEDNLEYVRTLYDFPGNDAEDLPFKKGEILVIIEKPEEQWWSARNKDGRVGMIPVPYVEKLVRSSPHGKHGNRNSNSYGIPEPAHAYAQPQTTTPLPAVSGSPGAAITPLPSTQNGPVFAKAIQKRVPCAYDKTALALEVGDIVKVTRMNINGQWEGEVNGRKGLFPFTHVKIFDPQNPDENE
UniProt Q9UNS2: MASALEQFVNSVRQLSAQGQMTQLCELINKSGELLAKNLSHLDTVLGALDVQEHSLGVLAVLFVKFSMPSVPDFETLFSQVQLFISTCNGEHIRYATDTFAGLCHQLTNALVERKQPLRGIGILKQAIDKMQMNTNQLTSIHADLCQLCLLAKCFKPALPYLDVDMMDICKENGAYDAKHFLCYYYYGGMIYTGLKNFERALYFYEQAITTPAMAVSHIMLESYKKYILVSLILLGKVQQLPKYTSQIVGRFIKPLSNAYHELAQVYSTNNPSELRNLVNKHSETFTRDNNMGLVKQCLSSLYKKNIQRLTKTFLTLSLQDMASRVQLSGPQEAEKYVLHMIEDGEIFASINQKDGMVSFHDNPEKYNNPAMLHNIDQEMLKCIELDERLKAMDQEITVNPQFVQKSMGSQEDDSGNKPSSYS
UniProt P02458, whole entry, looked up: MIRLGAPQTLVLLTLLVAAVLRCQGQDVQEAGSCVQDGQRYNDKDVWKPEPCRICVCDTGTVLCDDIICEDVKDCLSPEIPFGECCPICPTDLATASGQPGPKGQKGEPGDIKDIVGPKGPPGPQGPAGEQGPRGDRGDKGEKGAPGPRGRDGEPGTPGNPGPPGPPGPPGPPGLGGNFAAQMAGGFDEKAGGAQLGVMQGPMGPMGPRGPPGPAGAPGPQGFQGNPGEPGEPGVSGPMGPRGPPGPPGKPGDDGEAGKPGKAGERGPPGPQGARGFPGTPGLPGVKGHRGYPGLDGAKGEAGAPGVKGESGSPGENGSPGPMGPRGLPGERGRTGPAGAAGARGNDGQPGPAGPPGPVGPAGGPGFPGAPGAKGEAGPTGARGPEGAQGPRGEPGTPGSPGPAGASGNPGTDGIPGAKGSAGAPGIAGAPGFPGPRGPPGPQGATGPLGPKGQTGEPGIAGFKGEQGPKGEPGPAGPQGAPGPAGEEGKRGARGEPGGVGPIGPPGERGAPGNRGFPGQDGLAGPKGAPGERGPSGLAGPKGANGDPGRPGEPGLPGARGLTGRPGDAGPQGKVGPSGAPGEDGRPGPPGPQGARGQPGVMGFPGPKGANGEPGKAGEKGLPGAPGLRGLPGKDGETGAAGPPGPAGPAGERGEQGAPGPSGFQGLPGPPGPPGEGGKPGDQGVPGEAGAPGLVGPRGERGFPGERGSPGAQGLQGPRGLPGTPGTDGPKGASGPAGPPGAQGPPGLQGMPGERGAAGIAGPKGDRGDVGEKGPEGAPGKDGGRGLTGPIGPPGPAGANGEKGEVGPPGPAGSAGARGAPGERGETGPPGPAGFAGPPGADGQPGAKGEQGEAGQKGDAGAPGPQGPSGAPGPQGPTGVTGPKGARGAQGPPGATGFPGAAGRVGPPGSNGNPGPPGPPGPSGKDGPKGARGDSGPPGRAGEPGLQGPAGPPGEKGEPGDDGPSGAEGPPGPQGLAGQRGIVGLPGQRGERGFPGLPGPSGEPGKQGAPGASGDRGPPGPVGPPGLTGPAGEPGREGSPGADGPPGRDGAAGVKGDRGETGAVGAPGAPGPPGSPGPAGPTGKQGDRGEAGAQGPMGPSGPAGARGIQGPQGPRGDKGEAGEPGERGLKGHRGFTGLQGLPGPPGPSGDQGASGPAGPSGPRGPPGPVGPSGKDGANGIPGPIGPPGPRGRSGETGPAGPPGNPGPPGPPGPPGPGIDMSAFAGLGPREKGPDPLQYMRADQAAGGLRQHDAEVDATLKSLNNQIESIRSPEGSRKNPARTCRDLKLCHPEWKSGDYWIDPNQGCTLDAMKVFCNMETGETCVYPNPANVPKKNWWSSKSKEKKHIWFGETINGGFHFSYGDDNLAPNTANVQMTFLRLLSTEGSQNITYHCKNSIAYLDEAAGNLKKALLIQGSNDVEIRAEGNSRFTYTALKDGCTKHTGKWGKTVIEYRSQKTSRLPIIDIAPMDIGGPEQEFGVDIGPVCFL
UniProt Q7Z4G1, whole entry, looked up: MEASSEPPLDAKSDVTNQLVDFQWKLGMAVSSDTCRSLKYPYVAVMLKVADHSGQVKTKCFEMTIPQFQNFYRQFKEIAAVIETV
UniProt Q14894: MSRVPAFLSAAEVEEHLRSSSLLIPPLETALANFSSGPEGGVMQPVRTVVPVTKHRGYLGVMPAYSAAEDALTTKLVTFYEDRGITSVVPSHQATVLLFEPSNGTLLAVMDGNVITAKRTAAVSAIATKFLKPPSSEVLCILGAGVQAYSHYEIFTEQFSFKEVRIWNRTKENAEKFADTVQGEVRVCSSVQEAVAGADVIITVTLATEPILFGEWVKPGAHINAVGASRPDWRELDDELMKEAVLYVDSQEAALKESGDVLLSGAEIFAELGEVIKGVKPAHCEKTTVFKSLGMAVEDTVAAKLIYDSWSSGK
UniProt Q96H96: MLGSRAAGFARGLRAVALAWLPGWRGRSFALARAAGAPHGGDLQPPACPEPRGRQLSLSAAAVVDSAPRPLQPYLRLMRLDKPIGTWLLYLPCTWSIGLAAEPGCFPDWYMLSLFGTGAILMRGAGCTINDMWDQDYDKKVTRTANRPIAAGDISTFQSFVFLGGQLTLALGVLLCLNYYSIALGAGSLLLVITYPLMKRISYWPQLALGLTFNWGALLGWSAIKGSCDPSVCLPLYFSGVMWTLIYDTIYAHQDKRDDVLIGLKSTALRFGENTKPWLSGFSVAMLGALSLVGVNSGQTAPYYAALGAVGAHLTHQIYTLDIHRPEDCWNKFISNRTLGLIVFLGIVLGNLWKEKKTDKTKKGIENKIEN

[2] = compound: CN1CCN(c2nc(C3=C(c4c[nH]c5ccccc45)C(=O)NC3=O)c3ccccc3n2)CC1 [sotrastaurin]
Outline: as §1

[3] = compound: CN1CCc2c(c3ccccc3n2Cc2ccc(C(=O)NO)cc2)C1 [Tubastatin A]
Outline: as §1

[4] = compound: CNC(=O)C1=CC=CC=C1NC2=NC(=NC=C2Cl)NC3=C(C=C(C=C3)N4CCOCC4)OC
Outline: as §1

[5] = compound: CNC(=O)c1ccc(Nc2ncc(C(F)(F)F)c(NCc3nccnc3N(C)S(C)(=O)=O)n2)cc1 [defactinib]
Outline: as §1

[6] = compound: CNCc1ccc(-c2[nH]c3cc(F)cc4c3c2CCNC4=O)cc1 [rucaparib]
Outline: as §1

[7] = compound: CNc1nc(-c2ccc3c(N)n[nH]c3c2)cc(N2C[C@@H](C(=O)NC3CCCCC3)CC[C@H]2C)n1
Outline: as §1

[8] = compound: COC(=O)N[C@@H](C)CNc1nccc(-c2cn(C(C)C)nc2-c2cc(Cl)cc(NS(C)(=O)=O)c2F)n1 [encorafenib]
Outline: as §1

[9] = compound: COC(=O)[C@H](CCSC)NC(=O)C1=C(C=C(C=C1)NC[C@H](CS)N)C2=CC=CC=C2
Outline: as §1

[10] = compound: COC1=CC=C(C=C1)CN2C=CC3=C2C=C(C=C3)C(=O)NO
Outline: as §1

[11] = compound: CON(C)C(=O)N1N=C(c2cc(F)ccc2F)S[C@@]1(CCCN)c1ccccc1 [filanesib]
Outline: as §1

[12] = compound: CO[C@H]1C[C@@H]2CC[C@@H](C)[C@@](O)(O2)C(=O)C(=O)N2CCCC[C@H]2C(=O)O[C@H]([C@H](C)C[C@@H]2CC[C@H](n3cnnn3)[C@H](OC)C2)CC(=O)[C@H](C)/C=C(\C)[C@@H](O)[C@@H](OC)C(=O)[C@H](C)C[C@H](C)/C=C/C=C/C=C/1C [zotarolimus]
Outline: as §1

[13] = compound: COc1cc(C(=O)O)ccc1NC(=O)[C@@H]1N[C@@H](CC(C)(C)C)[C@](C#N)(c2ccc(Cl)cc2F)[C@H]1c1cccc(Cl)c1F [idasanutlin]
Outline: as §1

[14] = compound: COc1cc(Nc2ncc3c(n2)-c2ccc(Cl)cc2C(c2c(F)cccc2OC)=NC3)ccc1C(=O)O [alisertib]
Outline: as §1

[15] = compound: COc1cc2nc(-c3cc(F)ccc3O)nc(N[C@@H]3CNC[C@H]3C(C)(C)O)c2cc1OC
Outline: as §1

[16] = compound: COc1cc2ncnc(Nc3ccc(F)c(Cl)c3)c2cc1OCCCN1CCOCC1 [gefitinib]
Outline: as §1

[17] = compound: COc1cccc2cc(-c3nc([C@H]4CC[C@H](C(=O)O)CC4)n4ncnc(N)c34)[nH]c12
Outline: as §1

[18] = compound: CS(=O)(=O)CCNCc1ccc(-c2ccc3ncnc(Nc4ccc(OCc5cccc(F)c5)c(Cl)c4)c3c2)o1 [lapatinib]
Outline: as §1

[19] = compound: CS(=O)(=O)N1CCN(Cc2cc3nc(-c4cccc5[nH]ncc45)nc(N4CCOCC4)c3s2)CC1 [pictilisib]
Outline: as §1

[20] = compound: CN1CC[C@H](c2c(O)cc(O)c3c(=O)cc(-c4ccccc4Cl)oc23)[C@H](O)C1 [alvocidib]
Outline: as §1

Target	log2 fold change [1]	log2 fold change [2]	log2 fold change [3]	log2 fold change [4]	log2 fold change [5]	log2 fold change [6]	log2 fold change [7]	log2 fold change [8]	log2 fold change [9]	log2 fold change [10]	log2 fold change [11]	log2 fold change [12]	log2 fold change [13]	log2 fold change [14]	log2 fold change [15]	log2 fold change [16]	log2 fold change [17]	log2 fold change [18]	log2 fold change [19]	log2 fold change [20]
CSNK2A2 (UniProt P19784)	inactive: 0.029	inactive: 0.024	inactive: -0.042	inactive: 0.214	inactive: -0.067	inactive: -0.123	inactive: -0.017	inactive: -0.039	inactive: -0.052	inactive: -0.042	inactive: -0.019	inactive: -0.003	inactive: -0.094	inactive: 0.001	inactive: -0.177	inactive: -0.031	inactive: 0.033	inactive: 0.02	inactive: 0.128	–
COX17 (UniProt Q14061)	inactive: -0.092	inactive: -0.023	inactive: -0.113	inactive: -0.008	inactive: -0.072	–	inactive: 0.023	–	inactive: 0.147	inactive: 0.183	inactive: -0.059	inactive: 0.034	inactive: 0.059	inactive: -0.112	–	inactive: -0.055	inactive: 0.02	–	inactive: 0.092	–
COX5B (UniProt P10606)	inactive: -0.076	inactive: 0.113	inactive: 0.052	inactive: 0	inactive: -0.046	inactive: -0.01	inactive: 0.024	inactive: -0.033	inactive: 0.006	inactive: 0.012	inactive: 0.212	inactive: 0.094	inactive: 0.019	inactive: -0.103	inactive: 0.004	inactive: 0.011	inactive: 0.015	inactive: -0.038	inactive: -0.04	–
CRMP1 isoform 2 (UniProt Q14194)	inactive: -0.059	inactive: 0.107	inactive: 0.025	inactive: 0.024	inactive: -0.149	–	inactive: -0.041	–	inactive: 0.025	–	inactive: 0.067	inactive: -0.045	inactive: 0.172	–	–	inactive: -0.407	–	–	inactive: 0.107	–
CPSF7 isoform 3 (UniProt Q8N684)	inactive: 0.006	inactive: 0.026	inactive: 0.032	inactive: -0.071	inactive: 0.014	inactive: 0.033	inactive: -0.014	inactive: -0.014	inactive: -0.044	inactive: 0.018	inactive: 0.018	inactive: 0.033	inactive: -0.003	inactive: -0.074	inactive: 0.065	inactive: 0.029	inactive: -0.016	inactive: 0.013	inactive: 0.12	–
CPSF2 (UniProt Q9P2I0)	inactive: -0.015	inactive: -0.084	inactive: 0.065	inactive: 0.014	inactive: -0.084	inactive: 0.062	inactive: 0.008	inactive: 0	inactive: 0.078	inactive: -0.033	inactive: 0.013	–	inactive: 0.022	inactive: -0.116	inactive: 0.124	inactive: 0.053	inactive: 0.15	inactive: -0.024	inactive: 0	–
CRKL (UniProt P46109)	active: -1.42	inactive: 0.003	inactive: 0.003	inactive: -0.01	inactive: -0.052	inactive: -0.001	inactive: 0	inactive: 0.016	inactive: 0.008	inactive: 0.006	inactive: 0.002	inactive: 0.007	inactive: 0.022	inactive: -0.036	inactive: 0.021	inactive: 0	inactive: 0.102	inactive: -0.012	inactive: 0.057	–
COPS3 isoform 2 (UniProt Q9UNS2)	–	inactive: 0.134	inactive: -0.005	–	inactive: 0.109	inactive: -0.055	–	inactive: -0.041	inactive: 0.059	inactive: -0.144	inactive: 0.157	–	inactive: 0.138	inactive: -0.008	inactive: 0.321	inactive: 0.005	inactive: 0.083	inactive: -0.211	inactive: 0.128	–
COL2A1 (UniProt P02458)	inactive: -0.066	–	inactive: -0.142	–	inactive: 0.345	–	inactive: 0	–	inactive: 0.2	–	–	inactive: -0.195	inactive: 0.059	–	–	–	–	–	–	inactive: -0.072
COMMD6 isoform 2 (UniProt Q7Z4G1)	–	–	–	inactive: -0.197	inactive: 0.194	inactive: -0.106	–	inactive: -0.077	inactive: 0.008	–	–	–	–	–	–	–	–	–	inactive: -0.285	–
CRYM (UniProt Q14894)	inactive: 0.156	–	inactive: -0.328	inactive: -0.056	–	–	inactive: -0.219	–	–	–	–	inactive: -0.449	–	–	–	–	–	–	inactive: 0.016	inactive: 0.036
COQ2 (UniProt Q96H96)	–	–	–	inactive: -0.064	–	inactive: -0.052	–	inactive: -0.01	–	–	–	–	–	–	–	–	–	–	–	–

Individual results from above.
CSNK2A2 (UniProt P19784) | log2 fold change [7]: inactive: -0.017
COMMD6 isoform 2 (UniProt Q7Z4G1) | log2 fold change [5]: inactive: 0.194
